Laboratory results: article PMC12325296
Results are given in words; binding and its absence hold for the method and conditions named. Binding seen in cells or lysates may run through a third protein. These calls come from enrichment with a bait or labelling near it, and not all partners need be listed. No binding means not detected with the bait.

Protein sequences, listed by entry. Tags and fused reporters are not part of them.
UniProt Q13148: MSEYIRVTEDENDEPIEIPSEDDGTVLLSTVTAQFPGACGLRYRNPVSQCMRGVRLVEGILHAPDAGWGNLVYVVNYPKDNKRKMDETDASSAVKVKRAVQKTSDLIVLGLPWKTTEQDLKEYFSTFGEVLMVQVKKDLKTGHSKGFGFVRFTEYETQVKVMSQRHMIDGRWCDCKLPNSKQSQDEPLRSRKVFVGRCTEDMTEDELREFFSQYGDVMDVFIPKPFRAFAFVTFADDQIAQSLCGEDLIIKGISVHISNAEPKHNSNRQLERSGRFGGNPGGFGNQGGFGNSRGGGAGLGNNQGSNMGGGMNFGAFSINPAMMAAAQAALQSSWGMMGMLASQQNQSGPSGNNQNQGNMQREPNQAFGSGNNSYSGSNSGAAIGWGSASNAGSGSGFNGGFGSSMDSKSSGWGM
UniProt P52294: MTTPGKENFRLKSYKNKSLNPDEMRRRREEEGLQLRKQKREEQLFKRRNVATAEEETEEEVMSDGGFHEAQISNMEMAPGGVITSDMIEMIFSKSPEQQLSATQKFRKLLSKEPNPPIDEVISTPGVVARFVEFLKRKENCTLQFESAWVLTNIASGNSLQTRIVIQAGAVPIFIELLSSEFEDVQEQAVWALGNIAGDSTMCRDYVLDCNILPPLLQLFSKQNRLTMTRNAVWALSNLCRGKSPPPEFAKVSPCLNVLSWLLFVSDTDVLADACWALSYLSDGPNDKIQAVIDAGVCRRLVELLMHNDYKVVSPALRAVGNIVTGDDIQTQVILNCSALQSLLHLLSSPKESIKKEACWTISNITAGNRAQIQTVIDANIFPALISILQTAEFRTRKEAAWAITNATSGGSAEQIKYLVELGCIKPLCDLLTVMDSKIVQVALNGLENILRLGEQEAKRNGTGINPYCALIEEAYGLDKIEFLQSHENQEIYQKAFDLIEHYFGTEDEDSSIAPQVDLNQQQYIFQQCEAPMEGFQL
UniProt O00505: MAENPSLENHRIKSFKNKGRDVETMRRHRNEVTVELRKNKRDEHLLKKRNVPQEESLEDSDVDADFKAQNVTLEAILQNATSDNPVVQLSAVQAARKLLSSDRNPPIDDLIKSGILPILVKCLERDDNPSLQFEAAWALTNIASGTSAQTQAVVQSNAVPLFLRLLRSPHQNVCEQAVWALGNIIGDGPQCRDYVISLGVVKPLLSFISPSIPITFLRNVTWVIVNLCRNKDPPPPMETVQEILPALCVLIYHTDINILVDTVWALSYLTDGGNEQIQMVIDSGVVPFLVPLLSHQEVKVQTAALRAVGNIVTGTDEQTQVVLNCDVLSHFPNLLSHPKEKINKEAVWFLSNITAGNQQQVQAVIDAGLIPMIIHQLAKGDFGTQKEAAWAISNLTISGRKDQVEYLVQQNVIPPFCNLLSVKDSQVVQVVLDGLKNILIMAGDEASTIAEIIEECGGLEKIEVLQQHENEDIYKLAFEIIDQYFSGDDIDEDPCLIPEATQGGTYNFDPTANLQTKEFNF
UniProt O00629: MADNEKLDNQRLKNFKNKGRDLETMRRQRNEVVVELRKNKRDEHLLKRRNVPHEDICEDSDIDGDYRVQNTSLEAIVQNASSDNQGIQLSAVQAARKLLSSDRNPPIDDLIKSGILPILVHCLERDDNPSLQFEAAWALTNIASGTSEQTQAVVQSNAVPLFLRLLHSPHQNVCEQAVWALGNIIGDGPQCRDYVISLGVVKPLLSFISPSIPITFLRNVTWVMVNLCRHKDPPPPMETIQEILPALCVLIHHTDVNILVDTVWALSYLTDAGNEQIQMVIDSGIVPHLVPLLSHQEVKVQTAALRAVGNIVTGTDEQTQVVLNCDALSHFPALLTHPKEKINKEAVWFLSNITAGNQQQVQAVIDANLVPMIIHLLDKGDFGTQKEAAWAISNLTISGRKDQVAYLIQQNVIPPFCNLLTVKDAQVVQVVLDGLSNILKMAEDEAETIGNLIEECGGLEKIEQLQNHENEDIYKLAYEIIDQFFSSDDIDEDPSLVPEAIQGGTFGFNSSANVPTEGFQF

biological target: BioID2-Myc-TDP-43 (human wildtype TDP-43 fused to biotin ligase BioID2) (human) (UniProt Q13148); test: proximity labelling; BioID2 proximity biotinylation in stable Flp-In HEK293 cell lines expressing BioID2 fused to TDP-43 (wildtype or ΔNLS) or control BioID2; pulldown using BioID2 as bait, then immunostaining for endogenous KPNAs

binding	Substance
binds	KPNA1 (from UniProt P52294 1-538)
binds	KPNA3 (from UniProt O00505 1-521)
no binding	KPNA6 (from UniProt O60684 1-536)
binds	karyopherin-α4 (KPNA4) (from UniProt O00629 1-521)
